Measured values as given in patent US20140105855A1.
Results are given in words; binding and its absence hold for the method and conditions named. A result given as binding can be weak or reduced; the word gives no strength.

Target: IL-17RA extracellular domain (ECD) (human)
Experiment: gel filtration, co-elution

B1: IL-17F (ligand, human)
chain: RKIPKVGHTFFQKPESCPPVPGGSMKLDIGIINENQRVSMSRNIESRSTSPWNYTVTWDPNRYPSEVVQAQCRNLGCINAQGKEDISMNSVPIQQETLVVRRKHQGCSVSFQLEKVLVTVGCTCVTPVIHHVQHHHHHH
binding: binds
